Experimental data: PMC11039992
These are yes or no findings as the source states them, for the method shown. Binding seen in cells or lysates may run through a third protein. Some results given as binding are weak or reduced against the parent protein; the word gives no strength. Where a sequence is shown, tags or fusion partners need not be part of it.

T1: V5-RBM41 (human) (UniProt Q96IZ5)
T1 sequence: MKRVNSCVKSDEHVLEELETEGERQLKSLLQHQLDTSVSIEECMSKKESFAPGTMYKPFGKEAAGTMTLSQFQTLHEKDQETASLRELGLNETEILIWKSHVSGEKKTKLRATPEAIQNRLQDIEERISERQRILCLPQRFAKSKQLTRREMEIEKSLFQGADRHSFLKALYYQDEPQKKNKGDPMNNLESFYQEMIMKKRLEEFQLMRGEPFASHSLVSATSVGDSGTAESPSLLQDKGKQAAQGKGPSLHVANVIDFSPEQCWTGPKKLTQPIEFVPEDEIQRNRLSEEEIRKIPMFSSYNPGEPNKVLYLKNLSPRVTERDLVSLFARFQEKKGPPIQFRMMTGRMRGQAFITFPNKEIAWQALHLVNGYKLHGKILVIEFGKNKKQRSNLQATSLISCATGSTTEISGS

T2: V5-65K (human) (UniProt Q96LT9)
T2 sequence: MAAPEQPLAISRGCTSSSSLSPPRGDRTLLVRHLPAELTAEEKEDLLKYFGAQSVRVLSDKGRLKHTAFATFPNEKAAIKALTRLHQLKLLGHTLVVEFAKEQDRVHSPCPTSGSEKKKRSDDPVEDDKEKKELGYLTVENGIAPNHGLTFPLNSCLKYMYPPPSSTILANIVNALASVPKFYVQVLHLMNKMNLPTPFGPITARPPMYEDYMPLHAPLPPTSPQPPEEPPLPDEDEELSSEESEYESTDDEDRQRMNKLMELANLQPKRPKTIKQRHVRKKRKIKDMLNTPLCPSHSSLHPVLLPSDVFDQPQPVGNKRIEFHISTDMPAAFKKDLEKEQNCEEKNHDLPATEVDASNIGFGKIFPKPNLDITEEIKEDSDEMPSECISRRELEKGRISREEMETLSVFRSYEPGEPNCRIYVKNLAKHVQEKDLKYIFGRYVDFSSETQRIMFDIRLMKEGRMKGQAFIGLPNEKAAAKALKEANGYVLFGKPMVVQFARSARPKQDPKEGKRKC

B1: DEAH-box RNA helicase DHX8 (enzyme, UniProt Q14562 1-1220)
chain: MAVAVAMAGALIGSEPGPAEELAKLEYLSLVSKVCTELDNHLGINDKDLAEFVISLAEKNTTFDTFKASLVKNGAEFTDSLISNLLRLIQTMRPPAKPSTSKDPVVKPKTEKEKLKELFPVLCQPDNPSVRTMLDEDDVKVAVDVLKELEALMPSAAGQEKQRDAEHRDRTKKKKRSRSRDRNRDRDRDRERNRDRDHKRRHRSRSRSRSRTRERNKVKSRYRSRSRSQSPPKDRKDRDKYGERNLDRWRDKHVDRPPPEEPTIGDIYNGKVTSIMQFGCFVQLEGLRKRWEGLVHISELRREGRVANVADVVSKGQRVKVKVLSFTGTKTSLSMKDVDQETGEDLNPNRRRNLVGETNEETSMRNPDRPTHLSLVSAPEVEDDSLERKRLTRISDPEKWEIKQMIAANVLSKEEFPDFDEETGILPKVDDEEDEDLEIELVEEEPPFLRGHTKQSMDMSPIKIVKNPDGSLSQAAMMQSALAKERRELKQAQREAEMDSIPMGLNKHWVDPLPDAEGRQIAANMRGIGMMPNDIPEWKKHAFGGNKASYGKKTQMSILEQRESLPIYKLKEQLVQAVHDNQILIVIGETGSGKTTQITQYLAEAGYTSRGKIGCTQPRRVAAMSVAKRVSEEFGCCLGQEVGYTIRFEDCTSPETVIKYMTDGMLLRECLIDPDLTQYAIIMLDEAHERTIHTDVLFGLLKKTVQKRQDMKLIVTSATLDAVKFSQYFYEAPIFTIPGRTYPVEILYTKEPETDYLDASLITVMQIHLTEPPGDILVFLTGQEEIDTACEILYERMKSLGPDVPELIILPVYSALPSEMQTRIFDPAPPGSRKVVIATNIAETSLTIDGIYYVVDPGFVKQKVYNSKTGIDQLVVTPISQAQAKQRAGRAGRTGPGKCYRLYTERAYRDEMLTTNVPEIQRTNLASTVLSLKAMGINDLLSFDFMDAPPMETLITAMEQLYTLGALDDEGLLTRLGRRMAEFPLEPMLCKMLIMSVHLGCSEEMLTIVSMLSVQNVFYRPKDKQALADQKKAKFHQTEGDHLTLLAVYNSWKNNKFSNPWCYENFIQARSLRRAQDIRKQMLGIMDRHKLDVVSCGKSTVRVQKAICSGFFRNAAKKDPQEGYRTLIDQQVVYIHPSSALFNRQPEWVVYHELVLTTKEYMREVTTIDPRWLVEFAPAFFKVSDPTKLSKQKKQQRLEPLYNRYEEPNAWRISRAFRRR
B2: U11-48K (SNRNP48) (protein, UniProt Q6IEG0 1-339)
chain: MEGEPPPVEERRRLQEELNEFVESGCRTLEEVTASLGWDLDSLDPGEEEAAEDEVVICPYDSNHHMPKSSLAKHMASCRLRKMGYTKEEEDEMYNPEFFYENVKIPSITLNKDSQFQIIKQARTAVGKDSDCYNQRIYSSLPVEVPLNHKRFVCDLTQADRLALYDFVVEETKKKRSDSQIIENDSDLFVDLAAKINQDNSRKSPKSYLEILAEVRDYKRRRQSYRAKNVHITKKSYTEVIRDVINVHMEELSNHWQEEQEKAEDDAEKNEERRSASVDSRQSGGSYLDAECSRHRRDRSRSPHKRKRNKDKDKNCESRRRKERDGERHHSHKRRKQKI
B3: U11-59K (PDCD7) (protein, UniProt Q8N8D1 1-485)
chain: MALPPFFGQGRPGPPPPQPPPPAPFGCPPPPLPSPAFPPPLPQRPGPFPGASAPFLQPPLALQPRASAEASRGGGGAGAFYPVPPPPLPPPPPQCRPFPGTDAGERPRPPPPGPGPPWSPRWPEAPPPPADVLGDAALQRLRDRQWLEAVFGTPRRAGCPVPQRTHAGPSLGEVRARLLRALRLVRRLRGLSQALREAEADGAAWVLLYSQTAPLRAELAERLQPLTQAAYVGEARRRLERVRRRRLRLRERAREREAEREAEAARAVEREQEIDRWRVKCVQEVEEKKREQELKAAADGVLSEVRKKQADTKRMVDILRALEKLRKLRKEAAARKGVCPPASADETFTHHLQRLRKLIKKRSELYEAEERALRVMLEGEQEEERKRELEKKQRKEKEKILLQKREIESKLFGDPDEFPLAHLLEPFRQYYLQAEHSLPALIQIRHDWDQYLVPSDHPKGNFVPQGWVLPPLPSNDIWATAVKLH

How the values were obtained:
V5-RBM41 (human) = biological target: T1, V5-RBM41 (human); experiment: co-IP; anti-V5 or control antibody crosslinked (BS3) to Dynabeads Protein G; lysate of Flp-In T-REx 293 cell lines expressing V5-RBM41 or V5-65K; lysis buffer 20 mM HEPES pH 7.9, 137 mM NaCl, 10% glycerol, 1% NP-40; western blot
V5-65K (human) = biological target: T2, V5-65K (human); experiment: as above

Row | binding (V5-RBM41 (human)) | binding (V5-65K (human)) | Binder
1 | binds |  | B1
2 | no binding | binds | B2
3 | no binding | binds | B3
